For 1 molecule, binding results are on record in article PMC3269379, “The Host-Pathogen interaction of human cyclophilin A and HIV-1 Vpr requires specific N-terminal and novel C-terminal domains” (BMC Structural Biology, 2011).

The chains behind the UniProt entries cited, without tags or fusion partners.
UniProt P62937: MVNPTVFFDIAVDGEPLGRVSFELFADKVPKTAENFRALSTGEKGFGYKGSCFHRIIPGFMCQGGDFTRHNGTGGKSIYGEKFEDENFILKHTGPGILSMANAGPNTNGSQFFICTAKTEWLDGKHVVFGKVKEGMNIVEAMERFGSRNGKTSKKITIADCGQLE

No constants are given. Whether binding was seen depends on the method and setting. Some entries that bind do so weakly or less than the wild type.

The assay concerns the target human cyclophilin A (human) (UniProt P62937). As to the kind of experiment: SPR; both purified. A general note: SPR reads the build-up and loss of mass on a sensor chip optically.

As for GCRHSRIGVTRQRRAR [Vpr^75-90], the binding result was “binds”.
